Experimental findings from PMC12668308, “A Novel Antimalarial Agent that Inhibits Protein Synthesis in Plasmodium falciparum” (Angewandte Chemie (International Ed. in English), 2025) are described below.

The data set has as its system Dd2b2. The experiment in a line: Resistance selection. To be noted: Dd2b2, initial inoculum 2x10^9, 3x-5x-7x IC50 pressure; flasks 1-3. Format: cell-based, Plasmodium falciparum.

Structures are written as SMILES. “And” between values parts separate entries of the source, which are not always exact repeats. Equal values may be shown once. No dose or concentration is given here for some results.

Regarding `CN1CCN(Cc2ccc(O)c(NC(=O)c3cccc(Oc4cc(C(F)(F)F)ccn4)c3)c2)CC1` [Compound 31, N-(2-hydroxy-5-((4-methylpiperazin-1-yl)methyl)phenyl)-3-((4-(trifluoromethyl)pyridin-2-yl)oxy)benzamide], the “Day positive (first ring was observed in the culture)” value is 19 and 22.
